Experimental data as given in paper PMC8559680.
No constants are given. Whether binding was seen depends on the method and setting. For some of these results: In cells and extracts the contact can be indirect. Some entries that bind do so weakly or less than the wild type. For some of these results: Sequences can lack the tags named with a protein. Values belong to the binder of their own block, whether it stands above or below them.

How the values were obtained:
Fip1 (yeast) [1] = biological target: T1, Fip1 (yeast) (UniProt P45976); experiment: pull-down; StrepII (SII) tag on Pfs2 as bait; polymerase module subunits co-expressed in Sf9 cells; clarified lysate on Streptactin resin, 4°C; eluate analysed by SDS-PAGE
T1 sequence: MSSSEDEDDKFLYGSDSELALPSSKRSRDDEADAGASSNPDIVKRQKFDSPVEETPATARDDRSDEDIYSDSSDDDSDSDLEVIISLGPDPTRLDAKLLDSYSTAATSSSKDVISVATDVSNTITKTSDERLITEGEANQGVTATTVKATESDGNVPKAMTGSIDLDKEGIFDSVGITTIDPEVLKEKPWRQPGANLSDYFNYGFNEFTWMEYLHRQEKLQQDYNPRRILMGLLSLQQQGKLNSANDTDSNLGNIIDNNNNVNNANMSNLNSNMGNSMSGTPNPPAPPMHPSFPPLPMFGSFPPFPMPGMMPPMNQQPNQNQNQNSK

Fip1_(Δ110–180) (yeast) [2] = biological target: T2, Fip1_(Δ110–180) (yeast) (UniProt P45976); experiment: as above
T2 sequence: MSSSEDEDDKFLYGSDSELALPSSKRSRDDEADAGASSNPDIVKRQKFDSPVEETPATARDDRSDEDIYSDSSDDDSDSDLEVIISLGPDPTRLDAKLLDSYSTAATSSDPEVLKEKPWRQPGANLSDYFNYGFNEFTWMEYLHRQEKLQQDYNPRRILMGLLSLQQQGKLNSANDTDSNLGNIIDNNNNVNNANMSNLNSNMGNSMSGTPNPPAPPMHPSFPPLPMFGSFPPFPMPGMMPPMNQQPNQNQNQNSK

Fip1_(Δ1–60) (yeast) = biological target: T3, Fip1_(Δ1–60) (yeast) (UniProt P45976); experiment: as above
T3 sequence: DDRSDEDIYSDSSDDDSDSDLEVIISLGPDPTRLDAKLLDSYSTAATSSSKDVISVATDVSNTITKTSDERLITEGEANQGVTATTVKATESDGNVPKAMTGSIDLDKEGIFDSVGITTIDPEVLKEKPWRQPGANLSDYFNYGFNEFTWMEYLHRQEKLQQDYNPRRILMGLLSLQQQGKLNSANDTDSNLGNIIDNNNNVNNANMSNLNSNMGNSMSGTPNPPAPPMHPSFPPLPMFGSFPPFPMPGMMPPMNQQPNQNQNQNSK

Fip1 (yeast) [3] = biological target: T1, Fip1 (yeast); experiment: co-purification (StrepTactin affinity, anion exchange, size exclusion); StrepII tag on Ref2 as bait; Sf9 cells co-infected with two baculoviruses (nuclease and polymerase modules; phosphatase module); purified complex analysed by SDS-PAGE
Fip1_(Δ110–180) (yeast) [4] = biological target: T2, Fip1_(Δ110–180) (yeast); experiment: as above
[5] = biological target: CPF-Fip1_(226) (CPFΔFip1 with labelled Fip1_(226) bound) (yeast) (UniProt P45976); experiment: mass photometry; Refeyn One iSCAT; samples diluted to 100 nM in 50 mM HEPES (pH 7.4), 150 mM NaCl; both purified
Fip1_(scramble) (yeast) = biological target: T4, Fip1_(scramble) (yeast) (UniProt P45976); experiment: SEC; three purified components mixed (Pap1; Cft1-Pfs2-SII-Yth1-Fip1 variant; nuclease-phosphatase module); Superose 6 Increase 3.2/300, CPF wash buffer; both purified
T4 sequence: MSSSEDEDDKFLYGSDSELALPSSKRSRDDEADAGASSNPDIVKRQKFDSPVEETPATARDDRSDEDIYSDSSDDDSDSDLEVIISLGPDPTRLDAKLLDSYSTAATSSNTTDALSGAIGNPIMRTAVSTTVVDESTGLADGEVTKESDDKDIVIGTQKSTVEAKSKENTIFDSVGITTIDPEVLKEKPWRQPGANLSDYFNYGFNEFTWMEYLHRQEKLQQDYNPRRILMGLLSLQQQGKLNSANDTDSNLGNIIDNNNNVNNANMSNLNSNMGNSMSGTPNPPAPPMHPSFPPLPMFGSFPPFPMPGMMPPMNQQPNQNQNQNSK

[6] = biological target: T5, Fip1_(Puf3) (yeast | S. pombe) (UniProt P45976); experiment: as above
T5 sequence: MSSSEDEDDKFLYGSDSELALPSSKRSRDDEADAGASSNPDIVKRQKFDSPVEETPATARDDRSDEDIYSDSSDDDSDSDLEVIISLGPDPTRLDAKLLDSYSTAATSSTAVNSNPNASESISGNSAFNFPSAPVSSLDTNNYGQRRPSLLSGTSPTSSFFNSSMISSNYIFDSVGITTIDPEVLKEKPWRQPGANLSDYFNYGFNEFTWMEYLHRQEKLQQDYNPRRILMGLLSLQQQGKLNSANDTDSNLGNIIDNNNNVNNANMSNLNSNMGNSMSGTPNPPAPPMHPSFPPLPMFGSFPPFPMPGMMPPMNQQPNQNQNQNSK

[7] = biological target: T6, Fip1_(226) (Fip1 residues 1–226), purified from E. coli (yeast) (UniProt P45976); experiment: NMR titration; labelled Fip1_(226) with unlabelled Yth1ZF4, Pap1, or both together; chemical shift perturbations and line broadening (1H,15N HSQC; 13C-detect CON); 278 K, 50 mM HEPES (pH 7.4), 150 mM NaCl; both purified
T6 sequence: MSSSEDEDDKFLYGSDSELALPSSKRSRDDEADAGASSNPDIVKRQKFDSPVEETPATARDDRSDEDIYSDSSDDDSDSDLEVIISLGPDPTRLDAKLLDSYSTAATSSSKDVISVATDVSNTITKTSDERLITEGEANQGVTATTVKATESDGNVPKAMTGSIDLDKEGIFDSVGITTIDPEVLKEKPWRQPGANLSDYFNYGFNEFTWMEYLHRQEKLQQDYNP

[8] = biological target: CPF-Fip1_(226) (CPFΔFip1 with labelled Fip1_(226) bound) (yeast) (UniProt P45976); experiment: NMR titration; 11 µM 2H,13C,15N Fip1_(226) with 1.1-fold molar excess of unlabelled CPFΔFip1, then excess His-Pap1; BEST 1H,15N-TROSY and 15N-edited 1H diffusion; 950 MHz, 278 K, 50 mM HEPES (pH 7.4), 150 mM NaCl; both purified

binding (Fip1 (yeast) [1]): binds | binding (Fip1_(Δ110–180) (yeast) [2]): binds | binding (Fip1_(Δ1–60) (yeast)): binds | binding (Fip1 (yeast) [3]): binds | binding (Fip1_(Δ110–180) (yeast) [4]): binds
B1: Pap1 (poly(A) polymerase), co-expressed in Sf9 (enzyme, UniProt P29468 1-537)
chain: MSSQKVFGITGPVSTVGATAAENKLNDSLIQELKKEGSFETEQETANRVQVLKILQELAQRFVYEVSKKKNMSDGMARDAGGKIFTYGSYRLGVHGPGSDIDTLVVVPKHVTREDFFTVFDSLLRERKELDEIAPVPDAFVPIIKIKFSGISIDLICARLDQPQVPLSLTLSDKNLLRNLDEKDLRALNGTRVTDEILELVPKPNVFRIALRAIKLWAQRRAVYANIFGFPGGVAWAMLVARICQLYPNACSAVILNRFFIILSEWNWPQPVILKPIEDGPLQVRVWNPKIYAQDRSHRMPVITPAYPSMCATHNITESTKKVILQEFVRGVQITNDIFSNKKSWANLFEKNDFFFRYKFYLEITAYTRGSDEQHLKWSGLVESKVRLLVMKLEVLAGIKIAHPFTKPFESSYCCPTEDDYEMIQDKYGSHKTETALNALKLVTDENKEEESIKDAPKAYLSTMYIGLDFNIENKKEKVDIHIPCTEFVNLCRSFNEDYGDHKVFNLALRFVKGYDLPDEVFDENEKRPSKKSKRKN

binding [5]: binds | binding (Fip1_(scramble) (yeast)): binds | binding [6]: binds | binding [7]: binds | binding [8]: binds
B2: His-Pap1, purified from E. coli (enzyme, UniProt P29468 1-537)
chain: B1 chain
